Measured values as given in patent US4379148A, “Analgesic and anti-inflammatory composition” (priority 1981, dated 1983).

Experiment: in vivo
Settings: mouse, po

For COc1ccc2cc([C@H](C)C(=O)O)ccc2c1 [Naproxen], the LD50 at 168 h was 1180 mg/kg and the LD50 at 168 h (LD50 dose obtained experimentally, with emorfazone 240, p.o., combined with emorfazone 240 mg/kg) was 1200 mg/kg.
